Measured values from the supplement of paper PMC7580552.
Counter-ions that a name gives are not always drawn. This is one part of the list. Baselines shift from plate to plate; read single values as rough.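 Biofilm, quantified by the absorbance of well-retained crystal violet, is assayed using the K-12 laboratory model grown unshaken in 96-well plates. Candidate specific biofilm inhibitors were drugs that sharply lowered staining yet reduced free-floating growth by less than 70%.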

Tested on: Escherichia coli W3110
Test: biofilm formation (crystal violet staining) relative to untreated control; higher = more biofilm
Details: 10 µM; 20-24 h; 30 °C; TB

Row | SMILES | biofilm formation [%]
1 | CC(=O)OCC(=O)[C@@]1(OC(C)=O)[C@@H](C)C[C@H]2[C@@H]3C[C@H](F)C4=CC(=O)C=C[C@]4(C)[C@@]3(F)[C@@H](O)C[C@@]21C [Diflorasone Diacetate] | 91
2 | C=CCOC(Cn1ccnc1)c1ccc(Cl)cc1Cl (configuration not stated) [Enilconazole] | 95
3 | N=C(N)NCCN1CCCCCCC1 [Guanethidine sulfate] | 83
4 | CC(CN(C)C)CN1c2ccccc2Sc2ccccc21 (configuration not stated) [Trimeprazine tartrate] | 66
5 | CC1(C)[C@@H](OC(=O)CCC(=O)O)CC[C@]2(C)[C@H]3C(=O)C=C4[C@@H]5C[C@@](C)(C(=O)O)CC[C@]5(C)CC[C@@]4(C)[C@]3(C)CC[C@@H]12 [Carbenoxolone disodium salt] | 70
6 | CO/N=C(\C(=O)N[C@@H]1C(=O)N2C(C(=O)OC(C)OC(C)=O)=C(COC(N)=O)CS[C@H]12)c1ccco1 (some centres not stated) [Cefuroxime axetil] | 94
7 | COc1ccccc1OCC(O)COC(N)=O (configuration not stated) [Methocarbamol] | 58
8 | Cc1cc(N)c2ccccc2[n+]1CCCCCCCCCC[n+]1c(C)cc(N)c2ccccc21 [Dequalinium dichloride] | 28
9 | Nc1ccn([C@@H]2CS[C@H](CO)O2)c(=O)n1 [Lamivudine] | 69
10 | NC1CCN(c2nc3c(cc2F)c(=O)c(C(=O)O)cn3-c2ccc(F)cc2F)C1 (configuration not stated) [Tosufloxacin hydrochloride] | 3
11 | COC(=O)Nc1nc2cc([S+]([O-])c3ccccc3)ccc2[nH]1 (configuration not stated) [Oxfendazol] | 64
12 | c1ccc(CNc2ncnc3nc[nH]c23)cc1 [Aminopurine, 6-benzyl] | 60
13 | CN1Cc2c(N)cccc2C(c2ccccc2)C1 (configuration not stated) [Nomifensine maleate] | 45
14 | CC(C)(O)c1ccccc1CC[C@@H](SCC1(CC(=O)O)CC1)c1cccc(/C=C/c2ccc3ccc(Cl)cc3n2)c1 [Montelukast] | 67
15 | O=C(c1ccccc1)c1ccc2n1CCC2C(=O)O (configuration not stated) [Ketorolac tromethamine] | 57
16 | CCOC(=O)[C@@](C)(N)Cc1ccc(O)c(O)c1 [Methyldopate hydrochloride] | 82
17 | COc1c(N2CCNC(C)C2)c(F)cc2c(=O)c(C(=O)O)cn(C3CC3)c12 (configuration not stated) [Gatifloxacin] | 23
18 | Cc1cc(C2CCCCC2)n(O)c(=O)c1 [Ciclopirox ethanolamine] | 92
19 | COc1cc(C(=O)NS(=O)(=O)c2ccccc2C)ccc1Cc1cn(C)c2ccc(NC(=O)OC3CCCC3)cc12 [Zafirlukast] | 65
20 | NS(=O)(=O)c1cc(C(=O)O)c(NCc2ccco2)cc1Cl [Furosemide] | 72
21 | NC(=O)c1ncn([C@@H]2O[C@H](CO)[C@@H](O)[C@H]2O)n1 [Ribavirin] | 56
22 | CCOC(=O)[C@H](CCc1ccccc1)N[C@@H](C)C(=O)N1[C@H](C(=O)O)C[C@@H]2CCC[C@@H]21 [Ramipril] | 82
23 | CCOc1ccc2c(c1)C(C)=CC(C)(C)N2 [Ethoxyquin] | 63
24 | CC(C)COCC(CN(Cc1ccccc1)c1ccccc1)N1CCCC1 (configuration not stated) [Bepridil hydrochloride] | 56

Reprinted at random: two records from the list
Row | SMILES | biofilm formation [%]
9 | Nc1ccn([C@@H]2CS[C@H](CO)O2)c(=O)n1 [Lamivudine] | 69
22 | CCOC(=O)[C@H](CCc1ccccc1)N[C@@H](C)C(=O)N1[C@H](C(=O)O)C[C@@H]2CCC[C@@H]21 [Ramipril] | 82

The results go on.

Row | SMILES | biofilm formation [%]
25 | NS(=O)(=O)c1cc2c(cc1Cl)N=CNS2(=O)=O [Chlorothiazide] | 63
26 | CN[C@H](CC(C)C)C(=O)N[C@H]1C(=O)N[C@@H](CC(N)=O)C(=O)N[C@H]2C(=O)N[C@H]3C(=O)N[C@H](C(=O)N[C@H](C(=O)O)c4cc(O)cc(O)c4-c4cc3ccc4O)[C@H](O)c3ccc(c(Cl)c3)Oc3cc2cc(c3O[C@@H]2O[C@H](CO)[C@@H](O)[C@H](O)[C@H]2O[C@H]2C[C@](C)(N)[C@H](O)[C@H](C)O2)Oc2ccc(cc2Cl)[C@H]1O [Vancomycin hydrochloride] | 30
27 | CNS(=O)(=O)Cc1ccc2[nH]cc(CCN(C)C)c2c1 [Sumatriptan succinate] | 52
28 | N[C@@H]1CCCCN(c2c(F)cc3c(=O)c(C(=O)O)cn(C4CC4)c3c2Cl)C1 [Besifloxacin hydrochloride] | 21
29 | CC[C@H]1OC(=O)[C@H](C)[C@@H](O[C@H]2C[C@@](C)(OC)[C@@H](O)[C@H](C)O2)[C@H](C)[C@@H](O[C@@H]2O[C@H](C)C[C@H](N(C)C)[C@H]2O)[C@](C)(OC)C[C@@H](C)C(=O)[C@H](C)[C@@H](O)[C@]1(C)O [Clarithromycin] | 57
30 | CCOc1ccccc1OCC1CNCCO1 (configuration not stated) [Viloxazine hydrochloride] | 69
31 | CCCCC1=NC2(CCCC2)C(=O)N1Cc1ccc(-c2ccccc2-c2nnn[nH]2)cc1 [Irbesartan] | 78
32 | CCCCOC(=O)c1ccc(N)cc1 [Butamben] | 86
33 | N=C(N)NC(=O)c1nc(Cl)c(N)nc1N [Amiloride hydrochloride dihydrate] | 81
34 | O=C1NCN(c2ccccc2)C12CCN(CCCC(c1ccc(F)cc1)c1ccc(F)cc1)CC2 [Fluspirilen] | 46
35 | CC(C)(C)C(=O)OCOC(=O)[C@@H]1N2C(=O)[C@@H](NC(=O)[C@H](N)c3ccccc3)[C@H]2SC1(C)C [Pivampicillin] | 86
36 | CCCCC(CC)CN1CN(CC(CC)CCCC)CC(C)(N)C1 (configuration not stated) [Hexetidine] | 79
37 | COc1cc2c(cc1OC)C(=O)C(CC1CCN(Cc3ccccc3)CC1)C2 (configuration not stated) [Donepezil hydrochloride] | 64
38 | O=C(CCCN1CCC(O)(c2ccc(Br)cc2)CC1)c1ccc(F)cc1 [Bromperidol] | 90
39 | CO[C@@]1(NC(=O)Cc2cccs2)C(=O)N2C(C(=O)O)=C(COC(N)=O)CS[C@@H]21 [Cefoxitin sodium salt] | 15
40 | CC(=O)c1ccc2c(c1)N(CCCN1CCC(CCO)CC1)c1ccccc1S2 [Piperacetazine] | 62
41 | COc1cc(Cc2cnc(N)nc2N)cc(OC)c1OC [Trimethoprim] | 30
42 | COCC1=C(C(=O)OC(C)OC(=O)OC(C)C)N2C(=O)[C@@H](NC(=O)/C(=N\OC)c3csc(N)n3)[C@H]2SC1 (some centres not stated) [Cefpodoxime proxetil] | 86
43 | CCN(CC)CCOC(=O)C(c1ccccc1)C1CCCCC1 (configuration not stated) [Drofenine hydrochloride] | 80
44 | Cn1c(=O)c2[nH]cnc2n(C)c1=O [Aminophylline] | 81
45 | CS(=O)(=O)c1ccc(C2=C(c3ccccc3)C(=O)OC2)cc1 [Rofecoxib] | 84
46 | Cc1ccnc2c1NC(=O)c1cccnc1N2C1CC1 [Nevirapine] | 77
47 | CN(C)CCC=C1c2ccccc2CCc2ccccc21 [Amitryptiline hydrochloride] | 100
48 | Cc1[nH]c(=O)c(C#N)cc1-c1ccncc1 [Milrinone] | 71

Row | SMILES | biofilm formation [%]
49 | C[C@]12CC[C@H]3C(=CCc4cc(O)ccc43)[C@@H]1CCC2=O [Equilin] | 75
50 | C=C[C@H]1CN2CC[C@H]1C[C@@H]2[C@@H](O)c1ccnc2ccc(OC)cc12 [Quinidine hydrochloride monohydrate] | 58
51 | Cc1cccc(C)c1NC(=O)C1CCCCN1C (configuration not stated) [Mepivacaine hydrochloride] | 62
52 | CN1C(C(=O)Nc2ccccn2)=C(O)c2sccc2S1(=O)=O [Tenoxicam] | 72
53 | Cc1ncc([N+](=O)[O-])n1CC(O)CCl (configuration not stated) [Ornidazole] | 77
54 | CO[C@H]1C[C@H](O[C@H]2[C@H](C)[C@@H](O[C@@H]3O[C@H](C)C[C@H](N(C)C)[C@H]3OC(C)=O)[C@@H](C)C[C@@]3(CO3)C(=O)[C@H](C)[C@@H](OC(C)=O)[C@@H](C)[C@@H](C)OC(=O)[C@@H]2C)O[C@@H](C)[C@@H]1OC(C)=O [Troleandomycin] | 54
55 | Cc1cc(C(=O)NNCc2ccccc2)no1 [Isocarboxazid] | 77
56 | Cn1c(=O)c2c(ncn2CC(=O)O)n(C)c1=O [Acefylline] | 50
57 | CN(C)CC/C=C1\c2ccccc2CSc2ccccc21 [Dosulepin hydrochloride] | 85
58 | CC(C)(Oc1ccc(Cl)cc1)C(=O)O [Clofibric acid] | 73
59 | Nc1c(Br)cc(Br)cc1CN[C@H]1CC[C@H](O)CC1 [Ambroxol hydrochloride] | 45
60 | Cn1ccnc1S [Methimazole] | 78
61 | CC(C)(Sc1cc(C(C)(C)C)c(O)c(C(C)(C)C)c1)Sc1cc(C(C)(C)C)c(O)c(C(C)(C)C)c1 [Probucol] | 93
62 | CCN1C(=O)NC(c2ccccc2)C1=O (configuration not stated) [Ethotoin] | 66
63 | CN1CCC(=C2c3ccccc3CC(=O)c3sccc32)CC1 [Ketotifen fumarate] | 83
64 | CN1CCCC(CC2c3ccccc3Sc3ccccc32)C1 (configuration not stated) [Metixene hydrochloride] | 97
65 | COc1ccccc1N1CCN(CC(O)COc2cccc3ccccc23)CC1 (configuration not stated) [Naftopidil dihydrochloride] | 67
66 | COc1ccc2c(c1)N(C[C@H](C)CN(C)C)c1ccccc1S2 [Methotrimeprazine maleat salt] | 81
67 | CCCN(CCC)C(=O)C(CCC(=O)O)NC(=O)c1ccccc1 (configuration not stated) [Proglumide] | 108
68 | COc1cc(OC)c(C(=O)CCCN2CCCC2)c(OC)c1 [Buflomedil hydrochloride] | 66
69 | N#CC(c1ccc(Cl)cc1)c1c(Cl)cc(-n2ncc(=O)[nH]c2=O)cc1Cl (configuration not stated) [Diclazuril] | 104
70 | CCC(Cc1c(I)cc(I)c(N)c1I)C(=O)O (configuration not stated) [Iopanoic acid] | 87
71 | CCC(NC(C)C)C(O)c1ccc(O)c(O)c1 (configuration not stated) [Isoetharine mesylate salt] | 62
72 | CN1CCc2cccc3c2[C@H]1Cc1ccc(O)c(O)c1-3 [R(-) Apomorphine hydrochloride hemihydrate] | 12

Some of the entries so far, with tabs.
Row	SMILES	biofilm formation [%]
68	COc1cc(OC)c(C(=O)CCCN2CCCC2)c(OC)c1 [Buflomedil hydrochloride]	66
69	N#CC(c1ccc(Cl)cc1)c1c(Cl)cc(-n2ncc(=O)[nH]c2=O)cc1Cl (configuration not stated) [Diclazuril]	104
70	CCC(Cc1c(I)cc(I)c(N)c1I)C(=O)O (configuration not stated) [Iopanoic acid]	87
71	CCC(NC(C)C)C(O)c1ccc(O)c(O)c1 (configuration not stated) [Isoetharine mesylate salt]	62
